Patent US20220089735A1
Numbering of substitutions follows the chain as printed. No constants are given. Whether binding was seen depends on the method and setting. Some results given as binding are weak or reduced against the parent protein; the word gives no strength. Sequences can lack the tags named with a protein.

T1: mouse B7S1-his (R&D system, cat#4206-B7-100) (mouse) (UniProt Q7TSP5)
T1 sequence (looked up): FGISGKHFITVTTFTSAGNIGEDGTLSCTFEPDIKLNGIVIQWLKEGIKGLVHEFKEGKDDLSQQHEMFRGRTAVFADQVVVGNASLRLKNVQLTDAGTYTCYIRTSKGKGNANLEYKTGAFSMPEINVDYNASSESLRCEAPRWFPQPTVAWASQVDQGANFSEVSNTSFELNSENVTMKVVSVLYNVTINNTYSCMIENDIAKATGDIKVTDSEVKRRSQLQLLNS

B1: humanized anti-B7S1 antibody VH1-4/VL4-5 (antibody, V domains shown)
VH: QVQLVQSGAEVKKPGASVKVSCKASGYTFTSYWMHWVRQAPGQGLEWIAAIYPGNSDTDYNQKFKGKAKITAVTSTSTVYMELSSLRSEDTAVYYCTTTVAHYFDYWGQGTMVTVSS
VL: EIVMTQSPATLSLSPGERATLTCKASQDVSFAVAWYQQKPGQAPKLLISSASYRYTGVPDRFSGSGSGTDFTLTISSLEPEDFAVYYCQQHYNTPLTFGGGTKVEIK
B2: humanized anti-B7S1 antibody VH1-5/VL4-4 (antibody, V domains shown)
VH: B1 VH with R38K, V79A
VL: B1 VL with M4L, T22S, K45R
B3: humanized anti-B7S1 antibody VH1-5/VL4-5 (antibody, V domains shown)
VH: B1 VH with R38K, V79A
VL: B1 VL

The binders below were run against T1, mouse B7S1-his (R&D system, cat#4206-B7-100) (mouse) (assay: ELISA, antigen coated on plate).

Binder | binding
B1 | binds
B2 | binds
B3 | binds
